Where “and” joins values, the source holds several entries; their conditions need not be identical. Equal values may be shown once. The source gives many values for each of these; only a part stands here.
Test system: P. yoelii strain YM
Assay: P. yoelii strain YM infection in mice, parasitemia and mortality (Example 16)
Assay type: in vivo, BALB/c mice

C=CC(C)(C)c1cc(/C=C/C(=O)c2ccc(O)cc2)c(OC)cc1O [Licochalcone A, licochalcone A]
Parasitemia, single mice (D + 4, 10 mg/kg i.p. 1 hour after infection, two times per day on D + 1 and D + 2): 0.1% | Parasitemia, single mice (D + 4, one i.p. injection 10 mg/kg 3 hours before infection, 10 mg/kg): 1.0% and 2.0% | % parasitemia, single mice (D + 4, orally 100 mg/kg/dose 3 and 24 h after infection, 100 mg/kg): 0.5% and 1.0% and 1.5% | Parasitemia, single mice (D + 5, 10 mg/kg i.p. 1 hour after infection, two times per day on D + 1 and D + 2, 10 mg/kg): 0.1% and 0.5% | Parasitemia, single mice (D + 5, one i.p. injection 10 mg/kg 3 hours before infection, 10 mg/kg): 5.0% and 6.0% | Parasitemia, single mice (D + 6, 10 mg/kg i.p. 1 hour after infection, two times per day on D + 1 and D + 2): 0.5% | Parasitemia, single mice (D + 6, one i.p. injection 10 mg/kg 3 hours before infection, 10 mg/kg): 22.0% and 21.0% | Parasitemia, single mice (D + 7, 10 mg/kg i.p. 1 hour after infection, two times per day on D + 1 and D + 2, 10 mg/kg): 1.5% and 0.8% | % parasitemia, single mice (D + 7, intraperitoneal Micro-Osmotic Pump 6 mg/100 μl/mouse, released during 7 days): 0.5% and 0% | Parasitemia, single mice (D + 7, one i.p. injection 10 mg/kg 3 hours before infection, 10 mg/kg): 55.0% and 45.0% | Parasitemia, single mice (D + 8, 10 mg/kg i.p. 1 hour after infection, two times per day on D + 1 and D + 2): 0.1% | Parasitemia, single mice (D + 9, 10 mg/kg i.p. 1 hour after infection, two times per day on D + 1 and D + 2): 0.1% | % parasitemia, single mice (D + 9, intraperitoneal Micro-Osmotic Pump 6 mg/100 μl/mouse, released during 7 days): 6% and 0% | Parasitemia, single mice (D + 9, one i.p. injection 10 mg/kg 3 hours before infection, 10 mg/kg): 85.0% and 82.0% | Parasitemia, single mice (D + 10, 10 mg/kg i.p. 1 hour after infection, two times per day on D + 1 and D + 2): 0.00% | Parasitemia, single mice (D + 11, 10 mg/kg/day in 2 injections, days +1 to +6, 10 mg/kg/day): 67.0% and 71.0% | Parasitemia, single mice (D + 11, 20 mg/kg/day in 2 injections, days +1 to +6, 20 mg/kg/day): 15.0% and 19.2% | Parasitemia, single mice (D + 11, 40 mg/kg/day in 2 injections, days +1 to +6, 40 mg/kg/day): 50.0% | Parasitemia, single mice (D + 12, 10 mg/kg/day in 2 injections, days +1 to +6, 10 mg/kg/day): 85.0% and 89.0% | Parasitemia, single mice (D + 12, 20 mg/kg/day in 2 injections, days +1 to +6, 20 mg/kg/day): 23.0% and 26.0% | Parasitemia, single mice (D + 12, 40 mg/kg/day in 2 injections, days +1 to +6, 40 mg/kg/day): 76.0% and 81.0% | Parasitemia, single mice (D + 13, 10 mg/kg/day in 2 injections, days +1 to +6): 90.0% | Parasitemia, single mice (D + 13, 20 mg/kg/day in 2 injections, days +1 to +6, 20 mg/kg/day): 12.0% and 15.0% | Parasitemia, single mice (D + 13, 40 mg/kg/day in 2 injections, days +1 to +6, 40 mg/kg/day): 89.0% and 88.0% | % parasitemia, single mice (D + 13, orally 100 mg/kg/dose 3 and 24 h after infection, 100 mg/kg): 5.0% and 8.0% | Parasitemia, single mice (D + 14, 10 mg/kg/day in 2 injections, days +1 to +6): died | Parasitemia, single mice (D + 14, 20 mg/kg/day in 2 injections, days +1 to +6, 20 mg/kg/day): 5.0% and 8.0% | Parasitemia, single mice (D + 14, 40 mg/kg/day in 2 injections, days +1 to +6): died | Parasitemia, single mice (D + 16, 20 mg/kg/day in 2 injections, days +1 to +6, 20 mg/kg/day): 0.1% and 0.5% | % parasitemia, single mice (D + 16, orally 100 mg/kg/dose 3 and 24 h after infection): 0% | Parasitemia, single mice (D + 18, 20 mg/kg/day in 2 injections, days +1 to +6): 0.0%

From patent publication US6603046B1, “Bis-aromatic a,β-unsaturated ketones” (Lica Pharmaceuticals A/S, priority 1992, dated 2003)
